Taken from: PubChem BioAssay AID1259308 (NCATS, 2017)

Purpose: 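Genes whose loss raises luciferase production in HEK293 cells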 (primary screen)
System: human HEK293 embryonic kidney cells stably expressing firefly luciferase (HEK-CMV-Luc2-Hygro)
Reagents: single siRNA against human genes, 0.8 pmol siRNA per well
Timing: 72 h
Detection: 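Reporter luminescence and viable-cell signal on separate replicate plates, given as percent of non-targeting control and median/MAD z-scores, plus per-cell luciferase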
Scale: total luciferase, z-score and total luciferase, % of control: higher = more reporter protein produced
Rule for the call: 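Active when the median/MAD z-score for overall luciferase is greater than 3; a gene was taken forward for validation with new siRNAs if at least two of its three siRNAs passed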
Meaning of the calls: active = raised luciferase; inactive = no rise
Here is one part, drawn at random, of about 59,000 reagents tested. In the full data, about 1,510 (2.6%) are marked active. 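Calls use total luciferase alone and ignore viability, so some active siRNAs may act by altering cell number.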 Unmarked entries are inactive. The numbers tell different reagents against one gene apart. Not all columns of the deposit are shown.

For SEMA5A #1, what was measured?
total luciferase, z-score: -0.0548; total luciferase, % of control: 80.8

How did the screen score SEMA5A #2?
total luciferase, z-score: -0.821; total luciferase, % of control: 65.6

For SEMA5A #3, what does the deposit list?
total luciferase, z-score: -0.285; total luciferase, % of control: 76.2

Which result is listed for SLITRK1 #1?
total luciferase, z-score: -0.708; total luciferase, % of control: 67.8

How did the screen score SLITRK1 #2?
total luciferase, z-score: 0.214; total luciferase, % of control: 86.1

What did the screen give for SLITRK1 #3?
total luciferase, z-score: 0.454; total luciferase, % of control: 90.9

Which result is listed for PRKAA2 #1?
total luciferase, z-score: -0.858; total luciferase, % of control: 64.8

For PRKAA2 #2, how do the results read?
total luciferase, z-score: 0.28; total luciferase, % of control: 87.5

Which result is listed for PRKAA2 #3?
total luciferase, z-score: 0.533; total luciferase, % of control: 92.5

How did the screen score ASIC1 #1?
total luciferase, z-score: -0.365; total luciferase, % of control: 74.6

With ASIC1 #2, what does the deposit list?
total luciferase, z-score: 0.177; total luciferase, % of control: 85.4

For ASIC1 #3, what does the deposit list?
total luciferase, z-score: -0.46; total luciferase, % of control: 72.7

With FZD10 #1, what does the deposit list?
total luciferase, z-score: 0.0921; total luciferase, % of control: 83.7

What did the screen give for FZD10 #2?
total luciferase, z-score: -0.0372; total luciferase, % of control: 81.1

What is on record for FZD10 #3?
total luciferase, z-score: -2.81; total luciferase, % of control: 26

With RAB6B #1, what does the deposit list?
total luciferase, z-score: -0.148; total luciferase, % of control: 78.9

What did the screen give for RAB6B #2?
total luciferase, z-score: 1.42; total luciferase, % of control: 110

What is on record for RAB6B #3?
total luciferase, z-score: 0.445; total luciferase, % of control: 90.7

What is on record for RPS3AP5 #1?
total luciferase, z-score: -1.53; total luciferase, % of control: 51.5

What did the screen give for RPS3AP5 #2?
total luciferase, z-score: -0.529; total luciferase, % of control: 71.4

For RPS3AP5 #3, what does the deposit list?
total luciferase, z-score: -1.79; total luciferase, % of control: 46.3

What did the screen give for ZSCAN20 #1?
total luciferase, z-score: -1.67; total luciferase, % of control: 48.6

What did the screen give for ZSCAN20 #2?
total luciferase, z-score: -1.08; total luciferase, % of control: 60.4

How did the screen score ZSCAN20 #3?
total luciferase, z-score: -0.515; total luciferase, % of control: 71.7

How did the screen score ASPNAT #1?
total luciferase, z-score: -0.492; total luciferase, % of control: 72.1

For ASPNAT #2, what does the deposit list?
total luciferase, z-score: -0.0796; total luciferase, % of control: 80.3

For ASPNAT #3, what was measured?
total luciferase, z-score: 0.234; total luciferase, % of control: 86.5

What is on record for C10orf120 #1?
total luciferase, z-score: -0.599; total luciferase, % of control: 70

Which result is listed for C10orf120 #2?
total luciferase, z-score: -0.669; total luciferase, % of control: 68.6

What did the screen give for C10orf120 #3?
total luciferase, z-score: 0.876; total luciferase, % of control: 99.3

Which result is listed for ATP6V0A2 #1?
total luciferase, z-score: 1.14; total luciferase, % of control: 105

What is on record for ATP6V0A2 #2?
total luciferase, z-score: 0.496; total luciferase, % of control: 91.8

What did the screen give for ATP6V0A2 #3?
total luciferase, z-score: 0.643; total luciferase, % of control: 94.7

What did the screen give for SPATA31C1 #1?
total luciferase, z-score: -0.328; total luciferase, % of control: 75.4

With SPATA31C1 #2, what does the deposit list?
total luciferase, z-score: 0.251; total luciferase, % of control: 86.9

For SPATA31C1 #3, what was measured?
total luciferase, z-score: 0.431; total luciferase, % of control: 90.4

What did the screen give for COPA #1?
total luciferase, z-score: 1.68; total luciferase, % of control: 115

For COPA #2, how do the results read?
total luciferase, z-score: 2.35; total luciferase, % of control: 129

For COPA #3, what was measured?
total luciferase, z-score: 1.15; total luciferase, % of control: 105

With PGC #1, how do the results read?
total luciferase, z-score: 3.95 (active); total luciferase, % of control: 160

For PGC #2, how do the results read?
total luciferase, z-score: -1.2; total luciferase, % of control: 58.1

What did the screen give for PGC #3?
total luciferase, z-score: 0.677; total luciferase, % of control: 95.4
